Assay results: patent publication US9889182B2 (The Regents of the University of California, priority 2009, dated 2018)

Tests used:
[1] = general procedure: Fmoc solid-phase peptide synthesis; Fmoc PAL PEG PS resin (PerSeptive Biosystems); details: conjugation step
[2] = general procedure: Fmoc solid-phase peptide synthesis; Fmoc PAL PEG PS resin; details: whole synthesis, scale 0.15 mmole, trifluoroacetic acid

Substance	final purity (method not given) ([1]; 1H NMR, trifluoroacetic acid salt, hydrochloride for conjugate)	conjugation yield ([1]; absorption at 502 nm, hydrochloride)	isolated mass [2]	isolated yield [2]
BODIPY-Cys(Arg)9 (CRRRRRRRRR; N-acetyl, C-amide, BODIPY label on Cys)	better than 95% purity	56%		
ace-CRRRRRRRRR-am			40 mg	10%
